Test results published in PubChem BioAssay AID1671190 (National Center for Advancing Translational Sciences (NCATS), 2021).
Out of some 580,000 compounds screened, about 6,100 (1.1%) were called active. The inconclusive results got no clear call from the source; some entries with a clear call stand among them for comparison. The call rests on the fitted dose curve; in most records, active means well fitted inhibition curve with a large enough effect; inconclusive means small, poorly fitted or top-dose-only effect, or another doubt; inactive means no such curve, though single readings can be large or run the other way. Potencies of inconclusive entries are doubtful fits and often do not repeat.
Potency means the concentration at half of the fitted maximal effect.

Chains of the proteins cited; added tags and fusions are not shown. Lines headed by an entry give the natural chain unless they say otherwise; changes in a name come on top.
UniProt P18054: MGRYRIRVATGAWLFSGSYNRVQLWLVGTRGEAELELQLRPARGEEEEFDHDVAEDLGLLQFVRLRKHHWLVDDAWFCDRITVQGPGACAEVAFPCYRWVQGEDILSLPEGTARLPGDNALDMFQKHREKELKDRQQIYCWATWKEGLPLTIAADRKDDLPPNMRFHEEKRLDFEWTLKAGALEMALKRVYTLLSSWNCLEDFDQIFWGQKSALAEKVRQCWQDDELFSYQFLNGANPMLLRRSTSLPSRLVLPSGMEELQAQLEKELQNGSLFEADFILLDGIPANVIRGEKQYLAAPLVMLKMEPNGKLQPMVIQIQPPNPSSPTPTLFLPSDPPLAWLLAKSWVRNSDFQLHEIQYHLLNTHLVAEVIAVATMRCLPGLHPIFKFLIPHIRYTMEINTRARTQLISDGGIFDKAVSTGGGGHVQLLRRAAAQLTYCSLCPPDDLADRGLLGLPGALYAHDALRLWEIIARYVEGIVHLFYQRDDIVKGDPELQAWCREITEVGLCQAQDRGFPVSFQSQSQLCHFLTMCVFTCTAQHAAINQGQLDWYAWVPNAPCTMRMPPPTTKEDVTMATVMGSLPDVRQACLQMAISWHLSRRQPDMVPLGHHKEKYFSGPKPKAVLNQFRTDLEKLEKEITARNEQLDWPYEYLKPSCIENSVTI

These compounds were tested against Polyunsaturated fatty acid lipoxygenase ALOX12 (Homo sapiens) (UniProt P18054) (assay: Primary qHTS assay for inhibitors of human arachidonate 12S-lipoxygenase (ALOX12): Round 2). Settings: purified 12hLO, xylenol orange hydroperoxide absorbance; series mostly up to 108 µM.
In short: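 Purified human 12hLO (150 nM final) in 25 mM Hepes, 0.01% Triton X-100, pH 7.0 was preincubated 15 min at room temperature with compound. Then 40 uM arachidonic acid was added, 30 min. Hydroperoxide was read by Fe-XO absorbance ratio 573/405 nm.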
For Cc1ccc(C)c(C(=O)Nc2ccc3oc(C)nc3c2)c1, the Potency was inconclusive: 22.4 µM [inhibitor, partial curve, poor fit]. CC(C(=O)NCCN1CCCC1)C1CCN(C(=O)c2ccc3nc(-c4ccccc4)oc3c2)CC1 (centres undefined) was tested, and the Potency was “inactive”. COC[C@@H]1OC[C@@]2(C)C3CC[C@@H](O)[C@@H](CC(=O)NCc4cccs4)[C@]3(C)CC[C@H]2O1 (some centres undefined) was tested, and the Potency was “inactive”. Cc1cccc(NC(=O)CN2C(=O)NC3(CCC(C(C)(C)C)CC3)C2=O)c1C (centres undefined) was tested, and the Potency was inconclusive: 31.6 µM [inhibitor, full curve]. With COc1ccc(S(=O)(=O)N2CCC(C(=O)Oc3cccc(C)c3)CC2)cc1OC the Potency was inconclusive: 100 µM [inhibitor, partial curve, poor fit]. COc1ccc(CCNC(=O)c2cc(-c3ccccc3)c(N3CCOCC3)s2)c(OC)c1OC was tested, and the Potency was “inactive”. In the case of O=C(COC(=O)CCC1CCCC1)Nc1ccc(Cl)cc1F, the Potency is reported as “inactive”. For CCCCOc1cc(/C=C/C(=O)c2ccc3c(c2)OCCO3)ccc1OC, the Potency was inconclusive: 8.91 µM [inhibitor, full curve, poor fit]. For NC(=S)NN=C1C2CC3CC(C2)CC1C3, the Potency was inconclusive: 63.1 µM [inhibitor, partial curve, poor fit]. COc1ccc2c(c1)CCCC(Br)C2=O (centres undefined) was tested, and the Potency was active: 39.8 µM. For CC(C)(C)c1nc(COc2ccccc2C#N)cs1, the Potency was “inactive”. With O=C1N(C2CCNCC2)C(c2ccccc2)C12CCCCC2 (centres undefined) the Potency was inconclusive: 79.4 µM [inhibitor, single point]. In the case of O=C(c1ccco1)N1CCN(S(=O)(=O)c2ccc(Br)s2)CC1, the Potency is reported as inconclusive: 28.2 µM [inhibitor, partial curve]. For S=C(NCc1ccc2c(c1)OCO2)Nc1ccc(-c2nc3ccccc3[nH]2)cc1, the Potency was inconclusive: 44.7 µM [inhibitor, partial curve, poor fit]. In the case of Cc1cccc2sc(N(Cc3cccnc3)C(=O)CCS(=O)(=O)c3ccccc3)nc12, the Potency is reported as inconclusive: 89.1 µM [inhibitor, partial curve, poor fit]. For COc1ccc(N2C(=O)C(CC(=O)Nc3ccc(Cl)cc3)N(Cc3ccc4c(c3)OCO4)C2=O)cc1 (centres undefined), the Potency was inconclusive: 100 µM [inhibitor, single point]. O=S(=O)(Nc1ccc(S(=O)(=O)Nc2ncccn2)cc1)c1ccc(Cl)cc1 was tested, and the Potency was inconclusive: 2.51 µM [inhibitor, full curve, poor fit]. With COc1ccc(NC(=O)c2cc(C)no2)cc1 the Potency was active: 12.6 µM. In the case of COc1ccc(CCC(=O)N2CCCC(n3cc(-c4nc(-c5ccccc5)no4)nn3)C2)cc1 (centres undefined), the Potency is reported as inconclusive: 11.2 µM [inhibitor, full curve, poor fit].
